Experimental data published in patent US20130023532A1, “INDAZOLYL-PYRIMIDINES AS KINASE INHIBITORS” (priority 2010, published 2013).
Some results were stated once for a whole list of compounds, not compound by compound.

Amino acid sequences for entries named in this document (tags omitted).
UniProt O43353, whole entry: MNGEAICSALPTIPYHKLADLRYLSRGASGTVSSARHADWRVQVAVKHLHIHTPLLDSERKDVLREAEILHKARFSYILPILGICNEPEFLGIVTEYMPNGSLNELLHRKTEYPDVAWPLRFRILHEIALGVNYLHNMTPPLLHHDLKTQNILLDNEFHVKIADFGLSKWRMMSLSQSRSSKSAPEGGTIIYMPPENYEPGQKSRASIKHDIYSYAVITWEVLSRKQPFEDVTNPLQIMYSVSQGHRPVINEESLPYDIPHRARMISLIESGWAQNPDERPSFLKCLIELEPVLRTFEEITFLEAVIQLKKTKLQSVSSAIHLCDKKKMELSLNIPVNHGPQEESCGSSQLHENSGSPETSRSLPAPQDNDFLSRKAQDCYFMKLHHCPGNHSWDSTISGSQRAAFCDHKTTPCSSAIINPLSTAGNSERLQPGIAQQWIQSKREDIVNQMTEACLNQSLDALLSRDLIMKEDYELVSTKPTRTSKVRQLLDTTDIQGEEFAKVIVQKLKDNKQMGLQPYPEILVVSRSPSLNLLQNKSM

What follows are compounds tested against T1, RIPK2 (Homo sapiens, UniProt O43353) (assay: Fluorescent polarization based binding assay at the ATP binding pocket of RIPK2). Conditions: FP competition with fluorescently labeled ATP competitive ligand (5 nM); full length FLAG His tagged RIPK2; mean of a minimum of 2 experiments.
T1 construct: Full length FLAG His tagged RIPK2 was purified from a Baculovirus expression system; FLAG (N); 6His (N); made in house; host or cells: Spodoptera frugiperda (Sf9) insect cells, baculovirus

Row | SMILES | mean pIC50
1 | COc1cc(Nc2nccc(Nc3n[nH]c4ncc(F)cc34)n2)cc(S(C)(=O)=O)c1 [Example 175, N4-(5-fluoro-1H-pyrazolo[3,4-b]pyridin-3-yl)-N2-[3-(methyloxy)-5-(methylsulfonyl)phenyl]-2,4-pyrimidinediamine] | greater than or equal to 6.0
2 | Cc1cc(Nc2nccc(N(C)c3n[nH]c4ncc(F)cc34)n2)cc(S(C)(=O)=O)c1 [Example 176, N4-(5-fluoro-1H-pyrazolo[3,4-b]pyridin-3-yl)-N4-methyl-N2-[3-methyl-5-(methylsulfonyl)phenyl]-2,4-pyrimidinediamine] | greater than or equal to 6.0
3 | Cc1ccc(Nc2nccc(N(C)c3n[nH]c4ncc(F)cc34)n2)cc1S(C)(=O)=O [Example 177, N4-(5-fluoro-1H-pyrazolo[3,4-b]pyridin-3-yl)-N4-methyl-N2-[4-methyl-3-(methylsulfonyl)phenyl]-2,4-pyrimidinediamine] | greater than or equal to 6.0
4 | CS(=O)(=O)c1cc(Nc2nccc(Nc3n[nH]c4ncc(F)cc34)n2)cc(N2CCOCC2)c1.O=C(O)C(F)(F)F [Example 178, N4-(5-fluoro-1H-pyrazolo[3,4-b]pyridin-3-yl)-N2-[3-(methylsulfonyl)-5-(4-morpholinyl)phenyl]-2,4-pyrimidinediamine trifluoroacetate] | greater than or equal to 6.0
5 | Cc1ccc(Nc2nccc(Nc3n[nH]c4ncc(F)cc34)n2)cc1S(C)(=O)=O [Example 179, N4-(5-fluoro-1H-pyrazolo[3,4-b]pyridin-3-yl)-N2-[4-methyl-3-(methylsulfonyl)phenyl]-2,4-pyrimidinediamine] | greater than or equal to 6.0
6 | Cc1cc(Nc2nccc(Nc3n[nH]c4ncc(F)cc34)n2)cc(S(C)(=O)=O)c1C [Example 180, N2-[3,4- DIMETHYL-5- (METHYL- SULFONYL) PHENYL]-N4-(5- FLUORO-1H- PYRAZOLO[3,4- B]PYRIDIN-3-YL)- 2,4-PYRIMIDINE- DIAMINE] | greater than or equal to 6.0
7 | Cc1c(N2CCCC2)cc(Nc2nccc(N(C)c3n[nH]c4ncc(F)cc34)n2)cc1S(C)(=O)=O [Example 181, N4-(5-fluoro-1H-pyrazolo[3,4-b]pyridin-3-yl)-N4-methyl-N2-[4-methyl-3-(methylsulfonyl)-5-(1-pyrrolidinyl)phenyl]-2,4-pyrimidinediamine] | greater than or equal to 6.0
8 | Cc1ccc2c(Nc3ccnc(Nc4cccc(S(C)(=O)=O)c4)n3)n[nH]c2n1.O=C(O)C(F)(F)F [Example 182, N4-(6-methyl-1H-pyrazolo[3,4-b]pyridin-3-yl)-N2-[3-(methylsulfonyl)phenyl]-2,4-pyrimidinediamine trifluoroacetate] | greater than or equal to 6.0
9 | CN(c1ccnc(Nc2cc(OC(F)F)cc(S(C)(=O)=O)c2)n1)c1n[nH]c2ncc(F)cc12 [Example 183, N2-[3-[(difluoromethyl)oxy]-5-(methylsulfonyl)phenyl]-N4-(5-fluoro-1H-pyrazolo[3,4-b]pyridin-3-yl)-N4-methyl-2,4-pyrimidinediamine] | greater than or equal to 6.0
10 | CN(c1ccnc(Nc2cc(N3CCC(F)(F)C3)cc(S(C)(=O)=O)c2)n1)c1n[nH]c2ncc(F)cc12 [Example 184, N2-[3-(3,3-difluoro-1-pyrrolidinyl)-5-(methylsulfonyl)phenyl]-N4-(5-fluoro-1H-pyrazolo[3,4-b]pyridin-3-yl)-N4-methyl-2,4-pyrimidinediamine] | greater than or equal to 6.0
11 | CN(c1ccnc(Nc2cc3c(c(S(C)(=O)=O)c2)CCO3)n1)c1n[nH]c2ncc(F)cc12 [Example 185, N4-(5-fluoro-1H-pyrazolo[3,4-b]pyridin-3-yl)-N4-methyl-N2-[4-(methylsulfonyl)-2,3-dihydro-1-benzofuran-6-yl]-2,4-pyrimidinediamine] | greater than or equal to 6.0
12 | COc1cc(Nc2nccc(Nc3n[nH]c4ncc(F)cc34)n2)cc(OC)c1OC [Example 186, N4-(5-FLUORO- 1H- PYRAZOLO[3,4- B]PYRIDIN-3-YL)- N2-[3,4,5- TRIS(METHYL- OXY)PHENYL]- 2,4-PYRIMIDINE- DIAMINE] | greater than or equal to 6.0
13 | COc1cc(Nc2nccc(N(C)c3n[nH]c4ncc(F)cc34)n2)cc(OC)c1OC [Example 187, N4-(5-fluoro-1H-pyrazolo[3,4-b]pyridin-3-YL)-N4-methyl-N2-[3,4,5-tris(methyloxy)phenyl]-2,4-pyrimidinediamine] | greater than or equal to 6.0
14 | Cc1ccc2c(Nc3ccnc(Nc4ccc(C)c(S(C)(=O)=O)c4)n3)n[nH]c2n1 [Example 188, N2-[4-methyl-3-(methylsulfonyl)phenyl]-N4-(6-methyl-1H-pyrazolo[3,4-b]pyridin-3-yl)-2,4-pyrimidinediamine] | greater than or equal to 6.0
15 | Cc1cc(Nc2nccc(Nc3n[nH]c4ncc(F)cc34)n2)cc(S(=O)(=O)C(C)(C)C)c1 [Example 189, N2-{3-[(1,1-dimethylethyl)sulfonyl]-5-methylphenyl}-N4-(5-fluoro-1H-pyrazolo [3,4-b]pyridin-3-yl)-2,4-pyrimidinediamine] | greater than or equal to 6.0
16 | CC(C)(C)S(=O)(=O)c1cc(Nc2nccc(Nc3n[nH]c4ncc(F)cc34)n2)cc(C(F)(F)F)c1 [Example 190, N2-[3-[(1,1-dimethylethyl)sulfonyl]-5-(trifluoromethyl)phenyl]-N4-(5-fluoro-1H-pyrazolo [3,4-b]pyridin-3-yl)-2,4-pyrimidinediamine] | greater than or equal to 6.0
17 | COc1cc(Nc2nccc(N(C)c3n[nH]c4nc(C)c(F)cc34)n2)cc(S(C)(=O)=O)c1 [Example 191, N4-(5-fluoro-6-methyl-1H-pyrazolo[3,4-b]pyridin-3-yl)-N4-methyl-N2-[3-(methyloxy)-5-(methylsulfonyl)phenyl]-2,4-pyrimidinediamine] | greater than or equal to 6.0
18 | Cc1cc(Nc2nccc(N(C)c3n[nH]c4nc(C)c(F)cc34)n2)cc(S(C)(=O)=O)c1 [Example 192, N4-(5-fluoro-6-methyl-1H-pyrazolo[3,4-b]pyridin-3-yl)-N4-methyl-N2-[3-methyl-5-(methylsulfonyl)phenyl]pyrimidine-2,4-diamine] | greater than or equal to 6.0
19 | COc1cc(Nc2nccc(Nc3n[nH]c4nc(C)c(F)cc34)n2)cc(S(C)(=O)=O)c1 [Example 193, N4-(5-fluoro-6-methyl-1H-pyrazolo[3,4-b]pyridin-3-yl)-N2-[3-(methyloxy)-5-(methylsulfonyl)phenyl]-2,4-pyrimidinediamine] | greater than or equal to 6.0
20 | Cc1nc2[nH]nc(N(C)c3ccnc(Nc4cc(N5CCCC5)cc(S(C)(=O)=O)c4)n3)c2cc1F [Example 194, N4-(5-fluoro-6-methyl-1H-pyrazolo[3,4-b]pyridin-3-yl)-N4-methyl-N2-[3-(methylsulfonyl)-5-(1-pyrrolidinyl)phenyl]-2,4-pyrimidinediamine] | greater than or equal to 6.0
21 | Cc1nc2[nH]nc(N(C)c3ccnc(Nc4cc(OC(F)F)cc(S(C)(=O)=O)c4)n3)c2cc1F [Example 195, N2-[3-[(difluoromethyl)oxy]-5-(methylsulfonyl)phenyl]-N4-(5-fluoro-6-methyl-1H-pyrazolo[3,4-b]pyridin-3-yl)-N4-methyl-2,4-pyrimidinediamine] | greater than or equal to 6.0
22 | Cc1ccc(Nc2nccc(N(C)c3n[nH]c4nc(C)c(F)cc34)n2)cc1S(C)(=O)=O [Example 196, N4-(5-fluoro-6-methyl-1H-pyrazolo[3,4-b]pyridin-3-yl)-N4-methyl-N2-[4-methyl-3-(methylsulfonyl)phenyl]-2,4-pyrimidinediamine] | greater than or equal to 6.0
23 | Cc1nc2[nH]nc(N(C)c3ccnc(Nc4cccc(S(C)(=O)=O)c4)n3)c2cc1F [Example 197, N4-(5-fluoro-6-methyl-1H-pyrazolo[3,4-b]pyridin-3-yl)-N4-methyl-N2-[3-(methylsulfonyl)phenyl]-2,4-pyrimidinediamine] | greater than or equal to 6.0
24 | COc1cc(Nc2nccc(N(C)c3n[nH]c4nc(C)c(F)cc34)n2)cc(OC)c1OC [Example 198, N4-(5-fluoro-6-methyl-1H-pyrazolo[3,4-b]pyridin-3-yl)-N4-methyl-N2-[3,4,5-tris(methyloxy)phenyl]-2,4-pyrimidinediamine] | greater than or equal to 6.0
25 | Cc1cc(Nc2nccc(N(C)c3n[nH]c4nc(C)c(F)cc34)n2)cc(S(=O)(=O)C(C)(C)C)c1 [Example 199, N2-{3-[(1,1-dimethylethyl)sulfonyl]-5-methylphenyl}-N4-(5-fluoro-6-methyl-1H-pyrazolo[3,4-b]pyridin-3-yl)-N4-methyl-2,4-pyrimidinediamine] | greater than or equal to 6.0
26 | Cc1cc(Nc2nccc(N(C)c3nn(C)c4nc(C)c(F)cc34)n2)cc(S(C)(=O)=O)c1 [Example 200, N4-(5-fluoro-1,6-dimethyl-1H-pyrazolo[3,4-b]pyridin-3-yl)-N4-methyl-N2-[3-methyl-5-(methylsulfonyl)phenyl]-2,4-pyrimidinediamine] | greater than or equal to 6.0
27 | Cc1nc2[nH]nc(N(C)c3ccnc(Nc4cccc(S(N)(=O)=O)c4)n3)c2cc1F [Example 201, 3-({4-[(5-fluoro-6-methyl-1H-pyrazolo[3,4-b]pyridin-3-yl)(methyl)amino]-2-pyrimidinyl}amino)benzene sulfonamide] | greater than or equal to 6.0
28 | NS(=O)(=O)c1cccc(Nc2nccc(Nc3n[nH]c4ncc(F)cc34)n2)c1 [Example 202, 3-({4-[(5-fluoro-1H-pyrazolo[3,4-b]pyridin-3-yl)amino]-2-pyrimidinyl}amino) benzene sulfonamide] | greater than or equal to 6.0
29 | Cc1nc2[nH]nc(N(C)c3ccnc(Nc4cc(F)cc(S(C)(=O)=O)c4)n3)c2cc1F [Example 203, N4-(5-fluoro-6-methyl-1H-pyrazolo[3,4-b]pyridin-3-yl)-N2-(3-fluoro-5-(methylsulfonyl)phenyl]-N4-methyl-2,4-pyrimidinediamine] | greater than or equal to 6.0
